Values of other authors in patent US20060205071A1, “Methods for ex-vivo expanding stem/progenitor cells” (priority 2003, published 2006).
At least one compound was matched to its structure with a doubt left.

Tested on: other signaling molecules
Settings: at concentrations at which it inhibits members of PI3K family; cited from earlier work

## O=c1cc(N2CCOCC2)oc2c(-c3ccccc3)cccc12 [LY294002]
  effect on other signaling molecules: no effect
